Measured values published in publication PMC5601625, “Defining a therapeutic window for kinase inhibitors in leukemia to avoid neutropenia” (Oncotarget, 2017).

Each compound was assayed on human peripheral blood neutrophils (assay: Human neutrophil viability by propidium iodide exclusion, flow cytometry). Conditions: neutrophil IC50 higher than cancer cell line IC50.
Experimental: Figure 3 Assessment of human neutrophil viability in response to kinase inhibitor treatment Human peripheral blood neutrophils from three healthy donors were primed with G-CSF or GM-CSF for 1 hour before addition of selected kinase inhibitors (as shown) or DMSO (control) at concentrations as indicated. Neutrophil viability was assessed after 18 hours of treatment, by propidium iodide exclusion measured by flow cytometry. Mean ± SEM shown.
Donors were 18 years of age or older and had not taken anti-inflammatory medications during the 2 weeks before donating. […] Human neutrophils were then isolated on a three-layer Percoll gradient as described for mouse bone marrow neutrophils as described. […] Neutrophils were resuspended in DMEM/10%FBS, and primed with 10 ng/mL recombinant human G-CSF (Amgen) or 10 ng/mL recombinant human GM-CSF (Leukine, Sargramostim) for 1 h. Compounds or DMSO carrier were added for […]. Viability was assessed by staining neutrophils with propidium iodide and analyzing on a BD Fortessa.

| Compound | IC50 in human neutrophils relative to cancer cell lines tested |
| --- | --- |
| CC[C@@H]1C(=O)N(C)c2cnc(Nc3ccc(C(=O)NC4CCN(C)CC4)cc3OC)nc2N1C1CCCC1 [(R)-BI-2536] | at least 10 fold |
| NC(=O)Nc1cc(-c2cccc(F)c2)sc1C(=O)N[C@H]1CCCNC1 [AZD7762] | at least 10 fold |
| Cn1c(=O)n(-c2ccc(C(C)(C)C#N)cc2)c2c3cc(-c4cnc5ccccc5c4)ccc3ncc21 [BEZ-235] | at least 10 fold |
